{"sequences": {"note": "Protein sequences, listed by entry. Tags and fused reporters are not part of them.", "UniProt Q9P2E3": "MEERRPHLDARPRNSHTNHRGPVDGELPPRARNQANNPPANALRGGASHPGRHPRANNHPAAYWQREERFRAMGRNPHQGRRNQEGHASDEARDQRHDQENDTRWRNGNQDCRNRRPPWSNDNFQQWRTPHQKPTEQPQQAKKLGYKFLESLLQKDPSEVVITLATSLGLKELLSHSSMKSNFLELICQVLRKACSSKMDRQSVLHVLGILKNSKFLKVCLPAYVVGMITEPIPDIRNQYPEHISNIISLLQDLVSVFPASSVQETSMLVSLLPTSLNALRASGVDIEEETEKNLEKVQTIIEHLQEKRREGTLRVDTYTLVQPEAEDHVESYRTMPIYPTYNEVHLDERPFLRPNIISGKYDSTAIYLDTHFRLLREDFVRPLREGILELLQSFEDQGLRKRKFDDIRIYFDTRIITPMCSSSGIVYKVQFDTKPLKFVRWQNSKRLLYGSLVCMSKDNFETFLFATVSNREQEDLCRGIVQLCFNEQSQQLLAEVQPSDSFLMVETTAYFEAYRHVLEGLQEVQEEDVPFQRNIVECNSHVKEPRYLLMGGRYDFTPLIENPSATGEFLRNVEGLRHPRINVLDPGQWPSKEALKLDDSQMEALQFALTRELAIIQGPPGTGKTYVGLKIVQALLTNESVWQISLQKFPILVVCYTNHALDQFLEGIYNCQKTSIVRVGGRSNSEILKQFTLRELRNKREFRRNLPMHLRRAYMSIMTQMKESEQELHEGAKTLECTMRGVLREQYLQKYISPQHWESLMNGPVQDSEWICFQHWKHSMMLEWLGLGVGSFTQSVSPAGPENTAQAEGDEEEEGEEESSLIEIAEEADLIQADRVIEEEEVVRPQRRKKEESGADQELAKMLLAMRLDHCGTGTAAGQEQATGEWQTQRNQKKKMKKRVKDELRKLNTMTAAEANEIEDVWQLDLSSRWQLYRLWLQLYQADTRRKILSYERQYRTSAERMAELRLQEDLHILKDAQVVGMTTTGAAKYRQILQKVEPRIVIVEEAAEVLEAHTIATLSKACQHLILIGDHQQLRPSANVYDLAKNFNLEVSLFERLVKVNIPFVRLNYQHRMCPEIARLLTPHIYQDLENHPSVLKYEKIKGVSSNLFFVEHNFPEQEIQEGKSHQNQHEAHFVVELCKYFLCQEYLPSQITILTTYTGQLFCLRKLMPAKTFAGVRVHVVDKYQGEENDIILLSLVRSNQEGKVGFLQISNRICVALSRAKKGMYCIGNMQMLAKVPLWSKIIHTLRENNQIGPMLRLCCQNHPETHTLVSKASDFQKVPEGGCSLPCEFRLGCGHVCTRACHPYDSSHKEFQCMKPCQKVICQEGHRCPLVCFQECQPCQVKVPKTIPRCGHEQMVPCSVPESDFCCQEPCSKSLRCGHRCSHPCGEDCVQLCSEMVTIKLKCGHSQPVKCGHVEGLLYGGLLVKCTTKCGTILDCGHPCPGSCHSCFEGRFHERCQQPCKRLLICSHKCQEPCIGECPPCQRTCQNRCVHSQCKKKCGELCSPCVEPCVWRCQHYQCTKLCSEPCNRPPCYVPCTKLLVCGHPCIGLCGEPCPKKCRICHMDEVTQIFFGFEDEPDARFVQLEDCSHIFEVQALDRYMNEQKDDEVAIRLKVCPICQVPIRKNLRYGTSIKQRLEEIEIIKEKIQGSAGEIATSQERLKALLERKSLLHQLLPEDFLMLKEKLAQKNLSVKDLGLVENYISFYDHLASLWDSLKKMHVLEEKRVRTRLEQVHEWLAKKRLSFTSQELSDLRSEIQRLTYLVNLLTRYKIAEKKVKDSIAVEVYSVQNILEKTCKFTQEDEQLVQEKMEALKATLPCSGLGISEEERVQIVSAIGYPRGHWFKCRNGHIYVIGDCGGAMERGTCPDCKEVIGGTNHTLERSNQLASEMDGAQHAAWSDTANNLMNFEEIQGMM", "UniProt Q96P20": "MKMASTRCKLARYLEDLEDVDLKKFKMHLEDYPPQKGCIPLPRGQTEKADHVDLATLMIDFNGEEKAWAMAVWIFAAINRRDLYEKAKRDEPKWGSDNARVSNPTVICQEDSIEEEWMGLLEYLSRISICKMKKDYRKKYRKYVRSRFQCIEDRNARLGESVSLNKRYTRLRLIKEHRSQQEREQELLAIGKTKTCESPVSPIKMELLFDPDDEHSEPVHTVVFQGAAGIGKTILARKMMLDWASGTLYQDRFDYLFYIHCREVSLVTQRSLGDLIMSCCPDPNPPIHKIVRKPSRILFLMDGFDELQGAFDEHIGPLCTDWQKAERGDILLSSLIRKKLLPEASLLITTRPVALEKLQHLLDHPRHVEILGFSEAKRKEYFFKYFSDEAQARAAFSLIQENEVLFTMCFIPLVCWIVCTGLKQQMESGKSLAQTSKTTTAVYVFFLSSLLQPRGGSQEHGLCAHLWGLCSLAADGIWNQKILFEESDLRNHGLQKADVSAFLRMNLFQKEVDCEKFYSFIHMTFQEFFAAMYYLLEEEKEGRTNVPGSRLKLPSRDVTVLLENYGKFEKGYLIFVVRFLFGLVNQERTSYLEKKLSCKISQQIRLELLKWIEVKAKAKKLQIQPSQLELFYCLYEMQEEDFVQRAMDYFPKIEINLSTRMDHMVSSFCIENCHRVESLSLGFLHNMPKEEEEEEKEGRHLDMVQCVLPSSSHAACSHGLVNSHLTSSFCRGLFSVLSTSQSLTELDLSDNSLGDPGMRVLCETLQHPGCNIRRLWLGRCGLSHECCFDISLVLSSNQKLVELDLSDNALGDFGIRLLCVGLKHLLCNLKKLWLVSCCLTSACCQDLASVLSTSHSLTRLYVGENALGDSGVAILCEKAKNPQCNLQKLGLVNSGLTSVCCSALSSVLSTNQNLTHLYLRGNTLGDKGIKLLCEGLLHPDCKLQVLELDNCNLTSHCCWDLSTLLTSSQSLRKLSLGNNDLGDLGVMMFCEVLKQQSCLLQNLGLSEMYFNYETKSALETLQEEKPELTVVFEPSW"}, "source": "paper PMC11574294", "target": "3xFLAG-miniTurbo-mEGFP-ZNFX1, stably expressed in HeLa cells (UniProt Q9P2E3)", "assay": "proximity labelling; HeLa cells stably expressing miniTurbo-ZNFX1 and mCherry-NLRP3; 200 uM biotin 8 h; RIPA lysate; streptavidin magnetic beads; immunoblot", "note": "No constants are given. Whether binding was seen depends on the method and setting. In cells and extracts the contact can be indirect. These calls come from enrichment with a bait or labelling near it, and not all partners need be listed.", "data": [{"substance": "HA-mCherry-NLRP3, stably expressed in HeLa cells (from UniProt Q96P20 1-1036)", "values": [{"measurement": "binding", "value": "binds"}]}]}
